PubChem BioAssay AID504808, Drosophila RNAi Screening Center – 2011

- Test: 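Genes whose loss lifts activity of an E2F-responsive reporter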 (primary screen)
- Cell system: Drosophila S2 cells
- Knock-down reagent: long dsRNA against Drosophila genes
- Measured: 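Dual luciferase plate measurements; E2F-specific signal taken as firefly over Renilla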
- Scale: E2F firefly: higher = more E2F reporter activity; Renilla normaliser: higher = more normaliser reporter signal
- Rule for the call: 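a knock-down counted as active when the firefly/Renilla E2F signal rose above 50%, a threshold chosen arbitrarily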
In all, the deposit lists about 21,000 reagents; this is an unselected part of those that have a named target and a result. Over the whole deposit, 18 (0.084%) got an active call. 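Raw counts without plate normalisation, one of two replicates; the ratio scores behind the calls were not deposited.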 The numbers tell different reagents against one gene apart. A plus sign joins genes that one reagent is predicted to hit. No sequences are given here. Not stated in the record: the amount of reagent, the time to read-out.

no.	predicted target	reagent no.	E2F firefly, rep 1	Renilla normaliser, rep 1	outcome
1	DIP-zeta	1	1.52e5	5270	inactive
2	DIP-zeta	2	1.47e5	5085	inactive
3	DIP-zeta	3	1.57e5	5803	inactive
4	CG8483	1	74466	3830	inactive
5	Tlk	1	1.00e5	7552	inactive
6	Tlk	2	60431	4115	inactive
7	CG7739	1	1.61e5	7186	inactive
8	Ank	1	1932	872	inactive
9	CG14142	1	1.14e5	6534	inactive
10	CG9222	1	1.46e5	5375	inactive
11	CG32718	1	85405	2524	inactive
12	snk	1	1.19e5	6421	inactive
13	CG17261	1	1.47e5	4872	inactive
14	Vps24	1	71566	4088	inactive
15	CG12054	1	1167	860	inactive
16	Naglu	1	86461	3732	inactive
17	Camp	1	1.41e5	4387	inactive
18	w-cup	1	1.42e5	4481	inactive
19	Mtk	1	1.05e5	4168	inactive
20	trr	1	2062	864	inactive
21	CG5569	1	97989	4782	inactive
22	Alp9	1	76409	3422	inactive
23	fd59A	1	73240	3352	inactive
24	CG9284 (retired record)	1	1.19e5	4580	inactive
25	CG9284 (retired record)	2	85015	3786	inactive
26	Dus4	1	79980	4039	inactive
27	mod(mdg4) + pre-mod(mdg4)-U	1	88458	3004	inactive
28	IFT52	1	1.53e5	5260	inactive
29	Hey	1	1.00e5	3776	inactive
30	CG10793	1	1.13e5	5379	inactive
31	CG3009	1	8449	668	inactive
32	CG4502	1	69076	204	inactive
33	CG9922	1	1.28e5	5123	inactive
34	Obp50e	1	1.06e5	4606	inactive

Targets above whose gene name starts with D or d (4):
predicted target	reagent no.	E2F firefly, rep 1	Renilla normaliser, rep 1	outcome
DIP-zeta	1	1.52e5	5270	inactive
DIP-zeta	2	1.47e5	5085	inactive
DIP-zeta	3	1.57e5	5803	inactive
Dus4	1	79980	4039	inactive

Next entries:
no.	predicted target	reagent no.	E2F firefly, rep 1	Renilla normaliser, rep 1	outcome
35	CG4364	1	81120	3739	inactive
36	CG6324	1	1.57e5	5887	inactive
37	PIG-S	1	78604	3712	inactive
38	PIG-S	2	1.13e5	5975	inactive
39	PIG-S	3	73532	4020	inactive
40	PGAP1	1	8224	824	inactive
41	CG15923	1	56183	3022	inactive
42	wech	1	85423	3559	inactive
43	ProRS-m	1	99090	3817	inactive
44	Tsp96F	1	1791	956	inactive
45	polo	1	75762	3413	inactive
46	CG13954	1	1.40e5	4590	inactive
47	CG31709	1	1.49e5	5200	inactive
48	GCC185	1	1.13e5	5212	inactive
49	CG11598	1	1.46e5	6186	inactive
50	CG12769	1	3426	223	inactive
51	Wnt4	1	1.01e5	5432	inactive
52	Wnt4	2	1.51e5	4841	inactive
53	CG15233	1	84017	3836	inactive
54	CG7139	1	68895	4311	inactive
55	CG8312	1	1.24e5	5975	inactive
56	Tsp66E	1	88956	3704	inactive
57	CG17127	1	1.60e5	5169	inactive
